Measured values taken from US20140363441A1 (priority 2013, published 2014).
Changes are numbered by the printed parent chain. Results are given in words; binding and its absence hold for the method and conditions named. Some results given as binding are weak or reduced against the parent protein; the word gives no strength.

Amino acid sequences for entries named in this document (tags omitted).
UniProt P06821: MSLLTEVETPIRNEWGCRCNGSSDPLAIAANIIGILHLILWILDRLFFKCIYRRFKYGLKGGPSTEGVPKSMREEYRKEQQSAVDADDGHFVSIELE

What was measured:
[1] = target: influenza A/Puerto Rico/8/34 (PR8) virus particles (M2 protein on the virion) (influenza A virus H1N1 A/Puerto Rico/8/34) (UniProt P06821); test: ELISA on A/Puerto Rico/8/34 virus
[2] = target: influenza A/Puerto Rico/8/34 (PR8) virus particles (M2 protein on the virion) (influenza A virus H1N1 A/Puerto Rico/8/34) (UniProt P06821); test: ELISA on purified A/Puerto Rico/8/34 virus coated at 10 µg/ml
[3] = target: influenza A/Puerto Rico/8/34 (PR8) virus particles (M2 protein on the virion) (influenza A virus H1N1 A/Puerto Rico/8/34) (UniProt P06821); test: ELISA on virus, crude supernatant
[4] = target: influenza A/Puerto Rico/8/34 (PR8) virus particles (M2 protein on the virion) (influenza A virus H1N1 A/Puerto Rico/8/34) (UniProt P06821); test: ELISA on PR8 virus, crude supernatant
[5] = target: influenza A/Puerto Rico/8/34 (PR8) virus particles (M2 protein on the virion) (influenza A virus H1N1 A/Puerto Rico/8/34) (UniProt P06821); test: ELISA on coated UV-inactivated A/PR/8/34 virus

Measured: binding

B1: 8I10 (TCN-032) (antibody, V domains shown)
VH: QVQLQESGPGLVKPSETLSLTCTVSGSSISNYYWSWIRQSPGKGLEWIGFIYYGGNTKYNPSLKSRVTISQDTSKSQVSLTMSSVTAAESAVYFCARASCSGGYCILDYWGQGTLVTVS
VL: DIQMTQSPSSLSASVGDRVTITCRASQNIYKYLNWYQQRPGKAPKGLISAASGLQSGVPSRFSGSGSGTDFTLTITSLQPEDFATYYCQQSYSPPLTFGGGTRVEIK
binds: all assays above

B2: 21B15 (antibody, V domains shown)
VH: B1 VH
VL: B1 VL with M4V, E105D
binds: [3] | [4]
